Source: patent publication US20210180023A1, “CARDIAC REPAIR BY REPROGRAMMING OF ADULT CARDIAC FIBROBLASTS INTO CARDIOMYOCYTES” (The Board of Regents of the University of Texas System, priority 2017, published 2021)
No constants are given. Whether binding was seen depends on the method and setting. In cells and extracts the contact can be indirect. Some binding calls cover weakened binding; strength is not graded here. Tags and fused reporters may be left off the sequences shown.

Sequences of proteins named here, by UniProt entry; tags and fusion partners are left off. A change or cut given only in a name is not applied to a line headed by its entry.
UniProt P43694: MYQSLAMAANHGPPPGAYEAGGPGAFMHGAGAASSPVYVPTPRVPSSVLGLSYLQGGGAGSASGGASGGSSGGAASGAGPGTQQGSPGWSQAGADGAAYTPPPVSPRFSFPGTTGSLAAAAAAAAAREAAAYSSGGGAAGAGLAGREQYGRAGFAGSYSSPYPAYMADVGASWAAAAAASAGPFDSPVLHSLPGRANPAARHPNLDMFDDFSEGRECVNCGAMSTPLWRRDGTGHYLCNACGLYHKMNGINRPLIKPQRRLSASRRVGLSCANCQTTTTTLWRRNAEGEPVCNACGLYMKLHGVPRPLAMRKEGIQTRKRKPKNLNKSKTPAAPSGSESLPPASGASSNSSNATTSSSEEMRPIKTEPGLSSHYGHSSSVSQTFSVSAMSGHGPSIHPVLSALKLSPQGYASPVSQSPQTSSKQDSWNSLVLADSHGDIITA

Assays:
[1] = biological target: myc-epitope tag fusion GATA4 (human) (UniProt P43694); assay: co-immunoprecipitation from transfected HEK293 cells (legend of FIG. 6A)
[2] = biological target: myc-epitope tag fusion GATA4 (human) (UniProt P43694); assay: co-immunoprecipitation from transfected HEK293 cells (anti-FLAG IP, anti-Myc blot)
[3] = biological target: myc-epitope tag fusion GATA4 (human) (UniProt P43694); assay: co-immunoprecipitation from transfected HEK293 cells (refers to FIG. 6A)

Measured: binding

B1: Flag-epitope tag ZNF281 fusion protein (protein, not shown: small tags and cut ends)
chain: MKIGSGFLSGGGGTGSSGGSGSGGGGSGGGGGGGSSGRRAEMEPTFPQGMVMFNHRLPPVTSFTRPAGSAAPPPQCVLSSSTSAAPAAEPPPPPAPDMTFKKEPAASAAAFPSQRTSWGFLQSLVSIKQEKPADPEEQQSHHHHHHHHYGGLFAGAEERSPGLGGGEGGSHGVIQDLSILHQHVQQQPAQHHRDVLLSSSSRTDDHHGTEEPKQDTNVKKAKRPKPESQGIKAKRKPSASSKPSLVGDGEGAILSPSQKPHICDHCSAAFRSSYHLRRHVLIHTGERPFQCSQCSMGFIQKYLLQRHEKIHSREKPFGCDQCSMKFIQKYHMERHKRTHSGEKPYKCDTCQQYFSRTDRLLKHRRTCGEVIVKGATSAEPGSSNHTNMGNLAVLSQGNTSSSRRKTKSKSIAIENKEQKTGKTNESQISNNINMQSYSVEMPTVSSSGGIIGTGIDELQKRVPKLIFKKGSRKNTDKNYLNFVSPLPDIVGQKSLSGKPSGSLGIVSNNSVETIGLLQSTSGKQGQISSNYDDAMQFSKKRRYLPTASSNSAFSINVGHMVSQQSVIQSAGVSVLDNEAPLSLIDSSALNAEIKSCHDKSGIPDEVLQSILDQYSNKSESQKEDPFNIAEPRVDLHTSGEHSELVQEENLSPGTQTPSNDKASMLQEYSKYLQQAFEKSTNASFTLGHGFQFVSLSSPLHNHTLFPEKQIYTTSPLECGFGQSVTSVLPSSLPKPPFGMLFGSQPGLYLSALDATHQQLTPSQELDDLIDSQKNLETSSAFQSSSQKLTSQKEQKNLESSTGFQIPSQELASQIDPQKDIEPRTTYQIENFAQAFGSQFKSGSRVPMTFITNSNGEVDHRVRTSVSDFSGYTNMMSDVSEPCSTRVKTPTSQSYR
binds: [1] | [2] | [3]
